Paper PMC5634508
Results are given in words; binding and its absence hold for the method and conditions named. Binding seen in cells or lysates may run through a third protein. Some entries that bind do so weakly or less than the wild type. Where a sequence is shown, tags or fusion partners need not be part of it. Each block holds one molecule with its values, some of them ahead of it.

The chains behind the UniProt entries cited, without tags or fusion partners.
UniProt Q9UHX1: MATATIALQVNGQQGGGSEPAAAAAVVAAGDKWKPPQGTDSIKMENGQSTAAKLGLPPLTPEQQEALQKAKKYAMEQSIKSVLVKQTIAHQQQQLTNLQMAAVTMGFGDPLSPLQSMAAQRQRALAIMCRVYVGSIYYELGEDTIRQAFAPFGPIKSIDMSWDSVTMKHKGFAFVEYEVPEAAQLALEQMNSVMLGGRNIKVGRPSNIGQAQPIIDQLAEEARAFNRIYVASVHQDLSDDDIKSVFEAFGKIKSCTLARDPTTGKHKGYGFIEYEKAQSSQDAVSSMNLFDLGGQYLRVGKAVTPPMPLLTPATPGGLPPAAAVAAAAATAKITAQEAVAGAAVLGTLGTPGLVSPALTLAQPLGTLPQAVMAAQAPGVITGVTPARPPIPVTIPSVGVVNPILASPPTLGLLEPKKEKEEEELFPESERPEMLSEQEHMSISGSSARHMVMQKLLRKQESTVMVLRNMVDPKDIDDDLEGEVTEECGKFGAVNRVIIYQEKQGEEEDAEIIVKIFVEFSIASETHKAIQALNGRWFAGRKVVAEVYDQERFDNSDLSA
UniProt Q9NQB0: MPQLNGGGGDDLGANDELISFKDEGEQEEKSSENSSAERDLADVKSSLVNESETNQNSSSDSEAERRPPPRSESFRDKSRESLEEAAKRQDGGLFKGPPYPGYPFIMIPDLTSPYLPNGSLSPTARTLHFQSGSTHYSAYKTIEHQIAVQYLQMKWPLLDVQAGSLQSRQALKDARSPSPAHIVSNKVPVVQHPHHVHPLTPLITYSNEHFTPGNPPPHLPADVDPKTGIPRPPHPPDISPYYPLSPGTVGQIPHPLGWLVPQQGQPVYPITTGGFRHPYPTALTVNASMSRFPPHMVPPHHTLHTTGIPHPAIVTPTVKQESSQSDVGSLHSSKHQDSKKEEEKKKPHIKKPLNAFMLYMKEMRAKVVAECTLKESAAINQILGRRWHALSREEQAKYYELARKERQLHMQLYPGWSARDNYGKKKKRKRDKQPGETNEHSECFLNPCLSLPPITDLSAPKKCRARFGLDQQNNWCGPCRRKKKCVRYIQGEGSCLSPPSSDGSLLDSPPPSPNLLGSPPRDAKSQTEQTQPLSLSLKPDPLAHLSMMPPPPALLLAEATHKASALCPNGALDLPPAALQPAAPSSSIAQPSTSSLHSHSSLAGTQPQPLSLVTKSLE

Target: HA-tagged PUF60 (wild type) (human) (UniProt Q9UHX1)
Test: co-IP; cells co-transfected with HA-PUF60 or HA-PUF60-D2 and FLAG-TCF7L2 or FLAG-HNF4α, lysed at day 2 post-transfection in 0.5% NP-40 in PBS; IP with anti-HA antibody and Protein G agarose beads, 60 min at 4 °C, 4 washes with lysis buffer; immunoblot with anti-FLAG, anti-HA

binding: binds
Molecule: FLAG-tagged TCF7L2 (transcription factor 7-like 2) (from UniProt Q9NQB0 1-619)

binding: no binding
B1: FLAG-tagged HNF4α (protein, UniProt P41235 1-474)
chain: MRLSKTLVDMDMADYSAALDPAYTTLEFENVQVLTMGNDTSPSEGTNLNAPNSLGVSALCAICGDRATGKHYGASSCDGCKGFFRRSVRKNHMYSCRFSRQCVVDKDKRNQCRYCRLKKCFRAGMKKEAVQNERDRISTRRSSYEDSSLPSINALLQAEVLSRQITSPVSGINGDIRAKKIASIADVCESMKEQLLVLVEWAKYIPAFCELPLDDQVALLRAHAGEHLLLGATKRSMVFKDVLLLGNDYIVPRHCPELAEMSRVSIRILDELVLPFQELQIDDNEYAYLKAIIFFDPDAKGLSDPGKIKRLRSQVQVSLEDYINDRQYDSRGRFGELLLLLPTLQSITWQMIEQIQFIKLFGMAKIDNLLQEMLLGGSPSDAPHAHHPLHPHLMQEHMGTNVIVANTMPTHLSNGQMCEWPRPRGQAATPETPQPSPPGGSGSEPYKLLPGAVATIVKPLSAIPQPTITKQEVI
